In publication PMC5733394:
These are yes or no findings as the source states them, for the method shown. Binding seen in cells or lysates may run through a third protein. Some binding calls cover weakened binding; strength is not graded here.

Sequences of proteins named here, by UniProt entry; tags and fusion partners are left off. A change or cut given only in a name is not applied to a line headed by its entry. A line that says so, or that is headed by a name, gives the form on record, which may keep a tag or linker. Residues count along the entry.
IRE1^LD-GST (O75460, residues 19-486): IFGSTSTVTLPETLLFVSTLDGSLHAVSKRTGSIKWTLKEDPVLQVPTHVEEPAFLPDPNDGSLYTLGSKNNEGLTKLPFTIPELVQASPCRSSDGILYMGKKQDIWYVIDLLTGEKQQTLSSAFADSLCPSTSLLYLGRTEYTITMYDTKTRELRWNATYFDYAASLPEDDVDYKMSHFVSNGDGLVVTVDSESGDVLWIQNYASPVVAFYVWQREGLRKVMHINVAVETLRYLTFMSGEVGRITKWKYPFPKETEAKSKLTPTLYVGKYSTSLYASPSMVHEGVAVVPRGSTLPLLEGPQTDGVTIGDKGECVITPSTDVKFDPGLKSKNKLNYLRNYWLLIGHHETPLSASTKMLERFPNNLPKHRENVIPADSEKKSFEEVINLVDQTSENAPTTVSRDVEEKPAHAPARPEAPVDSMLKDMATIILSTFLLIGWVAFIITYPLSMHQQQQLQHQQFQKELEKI
IRE1^(LD Q105C)-GST (O75460, form named): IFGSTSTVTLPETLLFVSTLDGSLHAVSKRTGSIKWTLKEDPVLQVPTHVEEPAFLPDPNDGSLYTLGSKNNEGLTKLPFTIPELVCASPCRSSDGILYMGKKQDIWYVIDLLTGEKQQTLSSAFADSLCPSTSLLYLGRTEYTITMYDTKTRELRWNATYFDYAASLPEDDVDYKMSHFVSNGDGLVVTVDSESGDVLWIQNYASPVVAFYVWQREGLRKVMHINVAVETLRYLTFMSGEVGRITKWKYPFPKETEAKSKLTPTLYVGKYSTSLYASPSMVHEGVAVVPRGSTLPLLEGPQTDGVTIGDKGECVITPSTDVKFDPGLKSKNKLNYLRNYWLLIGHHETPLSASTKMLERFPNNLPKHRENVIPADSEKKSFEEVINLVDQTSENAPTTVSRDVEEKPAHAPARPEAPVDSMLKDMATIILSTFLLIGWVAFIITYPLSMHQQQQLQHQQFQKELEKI
UniProt G3I8R9, residues 19-654: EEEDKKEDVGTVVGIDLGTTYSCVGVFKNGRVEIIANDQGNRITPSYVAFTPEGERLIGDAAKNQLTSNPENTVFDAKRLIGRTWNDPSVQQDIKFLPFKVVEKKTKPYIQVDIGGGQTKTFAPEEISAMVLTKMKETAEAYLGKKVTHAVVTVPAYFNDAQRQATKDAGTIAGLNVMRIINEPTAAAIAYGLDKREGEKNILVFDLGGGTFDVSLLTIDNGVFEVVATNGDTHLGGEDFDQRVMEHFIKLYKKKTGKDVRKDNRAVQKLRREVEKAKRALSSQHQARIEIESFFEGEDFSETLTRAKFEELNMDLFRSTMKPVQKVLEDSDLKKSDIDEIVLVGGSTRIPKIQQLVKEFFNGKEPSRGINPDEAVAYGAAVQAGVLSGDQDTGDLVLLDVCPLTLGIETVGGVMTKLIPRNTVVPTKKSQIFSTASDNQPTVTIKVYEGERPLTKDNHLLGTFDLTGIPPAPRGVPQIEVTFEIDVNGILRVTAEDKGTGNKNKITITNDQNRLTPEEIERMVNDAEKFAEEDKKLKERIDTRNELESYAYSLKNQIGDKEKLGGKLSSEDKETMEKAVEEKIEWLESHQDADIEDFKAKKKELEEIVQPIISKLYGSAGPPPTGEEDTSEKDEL

Tests used:
[1] = biological target: IRE1^(LD Q105C)-GST (human) (UniProt O75460); experiment: pull-down; GST fusions recovered on glutathione Sepharose 4B from lysates of transfected ΔERdj4 CHO cells (co-transfected with ERdj4, ERdj4^QPD or ERdj6 where indicated); ATP-depleting lysis buffer; endogenous BiP by immunoblot; where indicated beads incubated 5 min with 3 mM ATP
[2] = biological target: IRE1^LD-GST (human) (UniProt O75460); experiment: as above

binding [1]: binds
binding [2]: binds
Substance: endogenous BiP (CHO cells) (from UniProt G3I8R9 19-654)
